According to PubChem BioAssay (Tox21):
The inconclusive results got no clear call from the source; some entries with a clear call stand among them for comparison. Potencies beside an inconclusive call are fits to weak or partial responses and may not hold up. Active and inactive are the calls of the source. Calls follow the shape of the full dose curve.

The chains behind the UniProt entries cited, without tags or fusion partners.
UniProt P14416, whole entry, looked up: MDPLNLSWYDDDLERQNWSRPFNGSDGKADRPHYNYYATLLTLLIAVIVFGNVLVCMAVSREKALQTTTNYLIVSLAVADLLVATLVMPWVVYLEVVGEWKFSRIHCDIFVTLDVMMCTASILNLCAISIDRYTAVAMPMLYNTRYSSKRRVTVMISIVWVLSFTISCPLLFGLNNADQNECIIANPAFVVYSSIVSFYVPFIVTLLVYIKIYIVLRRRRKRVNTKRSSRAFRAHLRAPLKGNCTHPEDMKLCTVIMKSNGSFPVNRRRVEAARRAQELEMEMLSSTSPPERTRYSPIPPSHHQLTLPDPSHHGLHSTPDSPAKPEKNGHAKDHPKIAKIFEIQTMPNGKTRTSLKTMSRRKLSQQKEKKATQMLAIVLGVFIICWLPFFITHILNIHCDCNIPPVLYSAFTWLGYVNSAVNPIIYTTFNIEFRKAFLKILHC

Target: D(2) dopamine receptor (Homo sapiens) (UniProt P14416)
Assay: Dopamine D2 receptor (DRD2) small molecule agonists, cell-based qHTS assay (AID 1963594); also: nearly all actives have a fitted effect of over 35% in size
Conditions: HEK293-DRD2 cAMP HTRF, agonist mode, 30 min; activation: at 92.4 µM (top of the series) unless noted
Excerpt: National Center for Advancing Translational Sciences [NCATS]
Division of Preclinical Innovation [DPI]
U.S. Environmental Protection Agency [EPA]
National Institutes of Environmental Health Sciences [NIEHS]
National Toxicology Program [NTP]
U.S. Food and Drug Administration [FDA]
DRD2 is the D2 subtype of the dopamine receptor, which is coupled to Gi subtype of G protein-coupled receptor. This G protein-coupled receptor inhibits adenylyl cyclase activity. The DRD2-HEK293 cell line stably expressing D2 dopamine receptor can be used for screening agonists and antagonists of interactions between D2 and its ligands. The Hek293-DRD2 cAMP assay is based on HTRF technology. It measures changes of cAMP accumulation in response to Gi coupled GPCR activation or inhibition.
Tox21 Assay Protocol Summary:
DRD2-Hek293 cells were dispensed at 600 cells/3uL/well in 1536-well white plates using a Multidrop Dispenser. After the assay plates were incubated at a 37 C/5% CO2 incubator for 24 h, 1 uL of Ro20-1724 at final concentration of 0.1 mM was transferred to the assay plate by a Flying Reagent Dispenser. Following Ro20-1724 addition, 23 nL of compound dissolved in DMSO, positive controls or DMSO only was added to the assay plates via Wako pintool station. The assay plates were incubated at room temperature for 10 min. Next, 1 uL of NKH477 at 200nM was added into the plates. After the assay plates were incubated at room temperature for an additional 30 min, 2.5 ul/well of cAMP-d2 and 2.5 ul/well of anti-cAMP-cryptate were added respectively into the assay plates using a Flying Reagent Dispenser. The plates were incubated at room temperature for 1 h. The fluorescence intensity in the plates was measured at 340 nm excitation and 665 & 620 nm emission by an Envision plate reader.
% is scaled to controls: 0 for no effect and ±100 for the full control effect; potency is read from the fitted curve at half-maximal effect.

Structure (SMILES) | activation | Potency
C[Si](O[Si](C)(C)C)O[Si](C)(C)C | inconclusive: 1.85% | –
CC(=O)CC(=O)Nc1ccccc1C | – | inactive
O=Nc1ccc(NO)cc1 | – | inconclusive: 57.5 µM
c1cc(-c2ccncc2)ccn1 | – | inactive
CCN(CC)c1ccc2c(C)cc(=O)oc2c1 | inconclusive: 51.1% | –
Cc1ccc(Nc2nccc(N(C)c3ccc4c(C)n(C)nc4c3)n2)cc1S(N)(=O)=O | inconclusive: 19.7% [at 42.5 µM] | –
O=C1NCCN1CCN1CCC(c2cn(-c3ccc(F)cc3)c3ccc(Cl)cc23)CC1 | inactive: 10.5% [at 42.5 µM] | –
Cn1c(N)nc2nc[nH]c2c1=O | – | inconclusive: 67.8 µM [rising, partial curve, poor fit]
C[N+]1(CC2COC(c3ccccc3)(C3CCCCC3)O2)CCCCC1 (stereo not given) | inactive: -11.8% [at 42.5 µM] | –
CC[C@@]1(O)C(=O)OCc2c1cc1n(c2=O)Cc2c-1nc1ccccc1c2/C=N/OC(C)(C)C | inconclusive: -15.7% [at 42.5 µM] | –
COc1ccccc1N1CCN(CC(O)COc2cc(OC)c(OC)c(OC)c2)CC1 (stereo not given) | – | inconclusive: 5.96 µM [rising, partial curve]
CC(CCc1ccccc1)NCC(O)c1ccc(O)c(C(N)=O)c1 (stereo not given) | – | active: 3.31 µM
Nc1nc(Cl)nc2c1ncn2[C@@H]1O[C@H](CO)[C@@H](O)[C@@H]1F | – | active: 0.422 µM
C[C@]1(Cn2ccnn2)[C@H](C(=O)O)N2C(=O)C[C@H]2S1(=O)=O | inactive: 8.42% [at 42.5 µM] | –
O=C1CCCCCCCCCCCCCC1 | inactive: -1.17% | –
C[C@]12CCC(=O)C=C1C=C[C@@H]1[C@@H]2CC[C@@]2(C)[C@H]1CC[C@@]21CCC(=O)O1 | inconclusive: -3.9% [at 42.5 µM] | –
COc1ccc2cc1Oc1cc3c(cc1OC)CC[N+](C)(C)[C@H]3Cc1ccc(cc1)Oc1c(OC)c(OC)cc3c1[C@@H](C2)[N+](C)(C)CC3 | inactive: -1.8% [at 42.5 µM] | –
Cc1c[nH]c2ccccc12 | inconclusive: -3.29% [at 42.5 µM] | –
COC(=O)c1c(Cl)c(Cl)c(C(=O)OC)c(Cl)c1Cl | – | inconclusive: 15.7 µM
CCOc1cccc(-n2cc(C(=O)N3CCN(c4cc(C(=O)O)c5ccccc5c4)CC3)nc2-c2ccc(C)cc2)c1 | – | active: 65.5 µM

Arranged by heavy-atom count (descending): part of the list above
Structure (SMILES) | activation | Potency
COc1ccc2cc1Oc1cc3c(cc1OC)CC[N+](C)(C)[C@H]3Cc1ccc(cc1)Oc1c(OC)c(OC)cc3c1[C@@H](C2)[N+](C)(C)CC3 | inactive: -1.8% [at 42.5 µM] | –
CCOc1cccc(-n2cc(C(=O)N3CCN(c4cc(C(=O)O)c5ccccc5c4)CC3)nc2-c2ccc(C)cc2)c1 | – | active: 65.5 µM
CC[C@@]1(O)C(=O)OCc2c1cc1n(c2=O)Cc2c-1nc1ccccc1c2/C=N/OC(C)(C)C | inconclusive: -15.7% [at 42.5 µM] | –
O=C1NCCN1CCN1CCC(c2cn(-c3ccc(F)cc3)c3ccc(Cl)cc23)CC1 | inactive: 10.5% [at 42.5 µM] | –
Nc1nc(Cl)nc2c1ncn2[C@@H]1O[C@H](CO)[C@@H](O)[C@@H]1F | – | active: 0.422 µM
COC(=O)c1c(Cl)c(Cl)c(C(=O)OC)c(Cl)c1Cl | – | inconclusive: 15.7 µM
CCN(CC)c1ccc2c(C)cc(=O)oc2c1 | inconclusive: 51.1% | –
O=C1CCCCCCCCCCCCCC1 | inactive: -1.17% | –
CC(=O)CC(=O)Nc1ccccc1C | – | inactive
c1cc(-c2ccncc2)ccn1 | – | inactive
O=Nc1ccc(NO)cc1 | – | inconclusive: 57.5 µM

(cont.)

Structure (SMILES) | activation | Potency
CCCN(CCc1cccs1)[C@H]1CCc2c(O)cccc2C1 | – | inconclusive: 0.0008 µM
C=CCN1CCc2nc(N)sc2CC1 | – | active: 0.119 µM
CC(C)Oc1ccccc1O | – | inconclusive: 68.6 µM [rising, single point]
CC1=CC(C)C(C=O)C(C)C1 (stereo not given) | inactive: -7.19% | –
O=C(CN1CCN(Cc2ccc3c(c2)OCO3)CC1)N1c2ccccc2Sc2ccccc21 | inactive: -7.22% [at 42.5 µM] | –
CCN(CC)CCNC(=O)c1cc(S(C)(=O)=O)ccc1OC | inactive: -13.8% [at 42.5 µM] | –
N[C@H]1CN(c2c(F)cc3c(=O)c(C(=O)O)cn(C4C[C@H]4F)c3c2Cl)CC12CC2 (stereo not given in full) | inactive: -7.51% [at 42.5 µM] | –
CCCCCC/C=C\CCCCCCCC(=O)O | inactive: -10.1% | –
CC(C)(C)[C@@H](O)[C@@H](Cc1ccc(Cl)cc1)n1cncn1 | – | inconclusive: 68.5 µM [rising, single point]
CC(=O)/C=C/C1C(C)=CCC(C)C1(C)C (stereo not given) | inactive: 1.35% | –
NC(=O)N/N=C/c1ccc([N+](=O)[O-])o1 | inconclusive: 4.7% [at 42.5 µM] | inconclusive: 31.1 µM [falling, partial curve, poor fit]
Cc1c(I)c(=O)n(-c2ccccc2)n1C | inconclusive: 21% [at 42.5 µM] | –
CCCC1CCC(=O)O1 (stereo not given) | – | inconclusive: 0.611 µM [falling, single point]
COC(=O)CC(C)=O | inactive: -2.39% | –
CCOc1ccccc1OCCN[C@H](C)Cc1ccc(OC)c(S(N)(=O)=O)c1 | inconclusive: 21.5% [at 42.5 µM] | –
CCN[C@H]1CN(CCCOC)S(=O)(=O)c2sc(S(N)(=O)=O)cc21 | inconclusive: -1.74% [at 42.5 µM] | –
O=c1cccccc1O | inactive: -3.08% | –
CCN=C1C=CC(=C(c2ccc(N(CC)CC)cc2)c2ccc(N(CC)CC)cc2)c2ccccc21 | – | inconclusive: 21.6 µM
C[C@@H]1C[C@H]2[C@@H]3CCC4=CC(=O)C=C[C@]4(C)[C@@]3(F)[C@@H](O)C[C@]2(C)[C@H]1C(=O)CO | inconclusive: -28.9% [at 42.5 µM] | –
